In PMC4077619:
No constants are given. Whether binding was seen depends on the method and setting. Binding seen in cells or lysates may run through a third protein. Tags and fused reporters may be left off the sequences shown.

The chains behind the UniProt entries cited, without tags or fusion partners. Where a name states a change or a piece, a line headed by the entry shows the natural chain unless it says otherwise.
UniProt O81826: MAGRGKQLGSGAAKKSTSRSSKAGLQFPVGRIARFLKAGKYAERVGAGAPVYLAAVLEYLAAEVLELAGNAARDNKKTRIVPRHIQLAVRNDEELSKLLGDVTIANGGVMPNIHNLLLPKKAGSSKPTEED

Target: T1, CRLuc-SLR1 (rice SLENDER RICE 1 fused to the C-terminal fragment of Renilla luciferase) (rice) (UniProt Q7G7J6)
T1 sequence: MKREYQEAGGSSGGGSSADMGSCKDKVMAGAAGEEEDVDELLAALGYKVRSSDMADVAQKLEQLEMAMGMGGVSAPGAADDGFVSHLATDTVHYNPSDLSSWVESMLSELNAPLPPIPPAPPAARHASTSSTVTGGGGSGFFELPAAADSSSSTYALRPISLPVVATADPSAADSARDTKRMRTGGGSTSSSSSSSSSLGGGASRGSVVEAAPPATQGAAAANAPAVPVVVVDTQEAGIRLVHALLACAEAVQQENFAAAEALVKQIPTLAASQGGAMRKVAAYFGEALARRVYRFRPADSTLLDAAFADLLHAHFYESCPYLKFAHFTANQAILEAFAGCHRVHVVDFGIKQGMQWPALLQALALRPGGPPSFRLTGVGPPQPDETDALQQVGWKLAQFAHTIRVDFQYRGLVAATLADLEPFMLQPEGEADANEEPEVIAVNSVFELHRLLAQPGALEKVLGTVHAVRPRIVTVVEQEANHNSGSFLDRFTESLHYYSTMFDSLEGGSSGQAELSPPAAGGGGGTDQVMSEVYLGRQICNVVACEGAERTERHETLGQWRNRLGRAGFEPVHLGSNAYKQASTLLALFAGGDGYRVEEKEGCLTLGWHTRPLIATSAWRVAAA
Test: split reporter; split Renilla luciferase complementation in living rice protoplasts, 96-well plate, W5 buffer, ViviRen substrate, RLU read 16 h after transformation; no hormone added (before the hormone or with W5 buffer only); H2A-H2B also tested with GA3 (Figure S1), RLU not increased

binding: no binding
Substance: NRLuc-H2A (Arabidopsis HISTONE 2A fused to the N-terminal fragment of Renilla luciferase) (from UniProt O81826 1-131)
